# Among all 78,000 compounds or so, about 1,800 (2.3%) were called active. Inconclusive means that the source gave no clear call. Such entries were picked first, then a sample of the others. Cut-off read from the data, not from the text of the source: active = inhibition above about 30%; inconclusive = mostly about 10% to 28%; inactive = weaker than that.
# By UniProt entry, the sequences of proteins in these tests, tags left out. Where a name states a change or a piece, a line headed by the entry shows the natural chain unless it says otherwise.
# UniProt Q01638: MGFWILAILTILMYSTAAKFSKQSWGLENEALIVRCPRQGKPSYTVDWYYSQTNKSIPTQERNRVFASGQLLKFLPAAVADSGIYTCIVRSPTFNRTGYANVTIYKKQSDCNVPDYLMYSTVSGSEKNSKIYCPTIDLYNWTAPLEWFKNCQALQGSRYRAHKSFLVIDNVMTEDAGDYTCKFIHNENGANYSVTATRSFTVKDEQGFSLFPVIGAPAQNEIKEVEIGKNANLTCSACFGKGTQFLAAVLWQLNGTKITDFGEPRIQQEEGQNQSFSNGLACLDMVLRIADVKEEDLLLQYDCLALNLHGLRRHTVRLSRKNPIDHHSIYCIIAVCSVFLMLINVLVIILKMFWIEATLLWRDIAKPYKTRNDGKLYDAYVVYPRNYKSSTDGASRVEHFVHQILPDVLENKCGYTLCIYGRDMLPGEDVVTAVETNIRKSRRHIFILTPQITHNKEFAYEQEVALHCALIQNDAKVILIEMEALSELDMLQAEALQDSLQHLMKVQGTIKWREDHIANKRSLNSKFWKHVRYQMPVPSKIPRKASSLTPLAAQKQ
# Molecular target: Interleukin-1 receptor-like 1 (Homo sapiens) (UniProt Q01638)
# Assay: blocks human ST2 binding to IL-33, primary screen, biochemical, AlphaLISA (AID 1259354)
# Settings: AlphaLISA ST2-Fc/biotin-IL-33 interaction, 1 h; at 17 µM, hits give high values
row,Compound,inhibition
1,Cc1ccccc1CN1CCC(CNC(=O)c2ccn(C)c(=O)c2)C1 (configuration not stated),inactive
2,Nc1ccc(Nc2ccc([N+](=O)[O-])cc2S(=O)(=O)O)cc1,inconclusive: 29%
3,Cc1ccc2nc(-c3ccc(N)cc3O)oc2c1,active: 34%
4,O=C(NCc1cccnc1)C1CCCN(C2CCN(C(=O)c3ccn[nH]3)CC2)C1 (configuration not stated),inconclusive: 15%
5,Cc1ccccc1NC(=O)CC(=O)N1CCCN(CCCN2CCOCC2)CC1,inconclusive: 10%
6,Cc1ccc(C(=O)N2[C@H]3CCNC[C@@H]2CC3)cc1N1CCNC1=O,inconclusive: 11%
7,O=C(NCc1n[nH]c2c1CCCCC2)c1cnn2c1CCCC2,inconclusive: 14%
8,COc1ccc(-c2ccc(C)nc2N)c(OC)c1,inactive
9,CCCCc1ncc(CN(C)Cc2cccc3ncccc23)[nH]1,inconclusive: 17%
10,COc1cccc(-c2nnc(NC(=O)c3ccc(S(=O)(=O)N(C)C4CCCCC4)cc3)o2)c1,inactive
11,Cc1c(CCC#N)c(=O)n2c([nH]c3ccccc32)c1C#N,inconclusive: 17%
12,Cc1ccc(S(=O)(=O)N2C(=O)CSC2=Nc2ccccc2)cc1,inconclusive: 10%
13,N#Cc1ccc(-c2ccccn2)nc1SC/C=C/c1ccccc1,inconclusive: 15%
14,CCOC(=O)c1c(C)sc2c3c([nH]c12)CCCC3,inactive
15,CCc1cc(N(C)CC2COCCO2)nc(N2CCOCC2)n1 (configuration not stated),inconclusive: 14%
16,CCN(CC)Cc1cnc2c(C(=O)N3[C@@H]4CC[C@H]3CNC4)cnn2c1,inconclusive: 10%
17,c1nc(NCCCN2CCCC2)c2[nH]cnc2n1,inconclusive: 10%
18,COCCn1c(CNS(=O)(=O)c2ccc(C(C)(C)C)cc2)nc2cccnc21,inconclusive: 12%
19,O=C(c1ccc2nc3sc4c(c3c(=O)n2c1)CCCC4)N1CCN(c2ccccn2)CC1,inconclusive: 14%
20,CCN(CC)C(=O)Cn1cnc2sc(C(=O)Nc3ccc(F)c(Cl)c3)c(C)c2c1=O,inconclusive: 26%
21,Cc1ccc(S(=O)(=O)N2CCN(C)CC2)c(C)c1C,inconclusive: 27%

row,Compound,inhibition
1,CCC(NC(=O)c1cc(Cn2cnc3ccccc32)[nH]n1)c1cc(C)ccn1 (configuration not stated),inconclusive: 11%
2,O=C(NCCCc1ccccc1)Nc1ccccc1,inconclusive: 16%
3,C=C(C)CSC1=C(C#N)C(c2ccc(O)c(OC)c2)CC(=O)N1 (configuration not stated),inconclusive: 16%
4,CN1CCN(Cc2ccc(OCc3ccccc3)cc2)CC1,inactive
5,CC(C)CCN1C(=O)N(Cc2cccnc2)C(=O)C12CCN(Cc1cccc(C(F)(F)F)c1)CC2,inconclusive: 14%
6,CCCCN(C)C(=O)c1sc2nc(C)nc(N3CCCCC3)c2c1C,inconclusive: 10%
7,CCOc1ccccc1/C=C1\N=C(c2ccc(OC)c([N+](=O)[O-])c2)OC1=O,inactive
8,c1csc(C2=Nn3c(nnc3-c3ccc4c(c3)OCO4)SC2)c1,inactive
9,O=C(Nc1ncc(Cc2cccc(Cl)c2Cl)s1)C1CC1,inconclusive: 13%
10,C=CCc1cc(OC)ccc1OCCN1CCOCC1,inactive
11,CNc1ccccc1Cc1ccccc1,inconclusive: 20%
12,CCc1ccccc1-c1ccc(NC(C)=O)c(OC)c1,inactive
13,CCOc1ccc(S(=O)(=O)NCc2nc3cccnc3n2Cc2ccc(C)cc2)cc1,inactive
14,COc1ccc(NC(=O)CNS(=O)(=O)c2ccc(Br)s2)cc1,inactive
15,Cc1ccc(Cn2c(CCNC(=O)Nc3ccc(C)c(F)c3)nc3cccnc32)cc1,inconclusive: 10%
16,CC(C)CCNC(=O)C1CCN(c2ccc(-c3cccs3)nn2)CC1,inactive
17,O=C(CSc1nc2c(c(=O)n1-c1ccccc1)SCC2)Nc1cccc(Cl)c1,inconclusive: 15%
18,CCc1cc2c(=O)c(Oc3ccccc3)c(C(F)(F)F)oc2cc1OC,inconclusive: 12%
19,CC(C)c1noc([C@@H]2C[C@H](NC(=O)C3CCCCC3)CN2C)n1,inconclusive: 20%
20,Cc1ncoc1C(=O)N1CCC2(CCCN(Cc3cccc(F)c3F)C2)C1 (configuration not stated),inconclusive: 17%
21,O=C(c1cc(-c2cccc(Cl)c2)on1)N1CCc2ccccc2C1,inactive

row,Compound,inhibition
1,CCN(CC)C(=O)C[C@@H]1CCNC[C@@H]1Cc1cc(-c2ccc(C(C)(C)C)cc2)on1,inactive
2,COC(=O)COc1ccc2oc(C)c(C(=O)OC(C)C)c2c1,inactive
3,COCCOc1ccc(C(=O)N[C@@H]2CN(C(=O)Nc3ccc(OC(F)(F)F)cc3)CCC[C@H]2O)cc1,inconclusive: 13%
4,Cc1nn(-c2ccc(S(N)(=O)=O)cc2)c(C)c1-c1cccc([N+](=O)[O-])c1,inconclusive: 19%
5,Cc1nc2ccccc2c2c1C(=O)N(Cc1ccccc1Cl)C2=O,inconclusive: 13%
6,CC1=C(C(=O)Nc2ccccn2)C(c2ccncc2)n2ncnc2N1 (configuration not stated),inactive
7,COCCN(Cc1cnn(C)c1)C(=O)c1ccccc1OC(F)F,inactive
8,CC(C)NC(=O)NCCc1nc2cccnc2n1Cc1ccccc1,inconclusive: 10%
9,CC(=O)N1CCC[C@H]1C(=O)N1CCC(n2nccc2NC(=O)Nc2ccccc2C)CC1,inactive
10,CC1(C)C(C=C(Cl)Cl)C1C(=O)Nc1sc2c(c1C(N)=O)CCCC2 (configuration not stated),inconclusive: 11%
11,c1nc(N2C[C@@H]3[C@H](C2)[C@H]2CC[C@@H]3O2)c2cc[nH]c2n1,inconclusive: 11%
12,Cc1cc(C(=O)NCCCc2cccnc2)c2cccc(C)c2n1,inconclusive: 14%
13,O=C1CSC2=NCN(c3cccc(Br)c3)CN12,inconclusive: 17%
14,CCCn1cc(CN2CCN(C3CCCCC3)C(CCO)C2)c(C)n1 (configuration not stated),inconclusive: 13%
15,O=C(NCC(=O)N1CCC(N2CCCCC2)CC1)C1CCCCC1,inconclusive: 22%
16,O=C1NN(c2ccccc2)C(=O)/C1=C/c1ccc(-c2cc(Cl)ccc2Cl)o1,inconclusive: 18%
17,Cc1cc(NC(=O)Cn2c3ccccc3c(=O)c3ccccc32)no1,inconclusive: 29%
18,CS(=O)(=O)N(CC(=O)NCc1cccnc1)c1ccccc1F,inconclusive: 12%
19,CCCc1nc(C)cc(N2CCCC(O)(CO)CC2)n1 (configuration not stated),inactive
20,COc1ccc(C2CC(=O)N3CN(c4ccccc4)CSC3=C2C#N)cc1 (configuration not stated),inconclusive: 13%

# Look-ups from the entries so far.
# For inhibition, COCCOc1ccc(C(=O)N[C@@H]2CN(C(=O)Nc3ccc(OC(F)(F)F)cc3)CCC[C@H]2O)cc1 reads inconclusive: 13%
# For inhibition, O=C1CSC2=NCN(c3cccc(Br)c3)CN12 reads inconclusive: 17%
# For inhibition, CCN(CC)C(=O)C[C@@H]1CCNC[C@@H]1Cc1cc(-c2ccc(C(C)(C)C)cc2)on1 reads inactive
# For inhibition, CC(=O)N1CCC[C@H]1C(=O)N1CCC(n2nccc2NC(=O)Nc2ccccc2C)CC1 reads inactive
# For inhibition, CCCc1nc(C)cc(N2CCCC(O)(CO)CC2)n1 (configuration not stated) reads inactive

# — PubChem BioAssay AID1259354 (Paczesny and Yang Labs, IUPUI and University of Michigan, 2018)
